In PMC10617981 one finds binding data, which are given here for one molecule.

The chains behind the UniProt entries cited, without tags or fusion partners.
UniProt Q7KZF4: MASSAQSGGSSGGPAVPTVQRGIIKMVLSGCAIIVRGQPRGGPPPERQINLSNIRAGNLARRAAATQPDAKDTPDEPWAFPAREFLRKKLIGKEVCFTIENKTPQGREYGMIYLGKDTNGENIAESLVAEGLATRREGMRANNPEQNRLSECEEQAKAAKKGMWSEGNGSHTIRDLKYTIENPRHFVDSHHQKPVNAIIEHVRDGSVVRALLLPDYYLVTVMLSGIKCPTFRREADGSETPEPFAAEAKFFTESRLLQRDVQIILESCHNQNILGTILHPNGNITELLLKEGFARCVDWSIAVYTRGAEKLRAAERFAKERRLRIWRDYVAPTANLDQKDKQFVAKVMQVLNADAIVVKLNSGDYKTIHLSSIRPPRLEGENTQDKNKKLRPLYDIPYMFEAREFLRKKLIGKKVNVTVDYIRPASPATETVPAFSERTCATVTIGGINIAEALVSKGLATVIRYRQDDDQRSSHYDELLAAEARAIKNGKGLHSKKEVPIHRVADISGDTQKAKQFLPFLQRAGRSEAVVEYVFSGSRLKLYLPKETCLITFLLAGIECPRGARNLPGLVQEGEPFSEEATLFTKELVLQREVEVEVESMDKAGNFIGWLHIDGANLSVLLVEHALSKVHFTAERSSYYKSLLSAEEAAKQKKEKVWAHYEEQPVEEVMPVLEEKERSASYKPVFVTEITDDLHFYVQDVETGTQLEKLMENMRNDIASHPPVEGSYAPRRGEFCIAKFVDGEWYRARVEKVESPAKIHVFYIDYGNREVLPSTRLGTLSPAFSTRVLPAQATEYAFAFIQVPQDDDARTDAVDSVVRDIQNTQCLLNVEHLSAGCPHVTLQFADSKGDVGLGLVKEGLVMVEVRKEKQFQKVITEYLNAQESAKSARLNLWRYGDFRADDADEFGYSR

This test has as its target staphylococcal nuclease domain-containing protein 1 (SND1), endogenous (human (endogenous in A549^ACE2)) (UniProt Q7KZF4). The experiment in a line: affinity purification with mass spectrometry.

No constants are given. Whether binding was seen depends on the method and setting. In cells and extracts the contact can be indirect. These calls come from enrichment with a bait or labelling near it, and not all partners need be listed.

B1: metadherin (MTDH) (protein, UniProt Q86UE4 1-582)
chain: MAARSWQDELAQQAEEGSARLREMLSVGLGFLRTELGLDLGLEPKRYPGWVILVGTGALGLLLLFLLGYGWAAACAGARKKRRSPPRKREEAAAVPAAAPDDLALLKNLRSEEQKKKNRKKLSEKPKPNGRTVEVAEGEAVRTPQSVTAKQPPEIDKKNEKSKKNKKKSKSDAKAVQNSSRHDGKEVDEGAWETKISHREKRQQRKRDKVLTDSGSLDSTIPGIENTITVTTEQLTTASFPVGSKKNKGDSHLNVQVSNFKSGKGDSTLQVSSGLNENLTVNGGGWNEKSVKLSSQISAGEEKWNSVSPASAGKRKTEPSAWSQDTGDANTNGKDWGRSWSDRSIFSGIGSTAEPVSQSTTSDYQWDVSRNQPYIDDEWSGLNGLSSADPNSDWNAPAEEWGNWVDEERASLLKSQEPIPDDQKVSDDDKEKGEGALPTGKSKKKKKKKKKQGEDNSTAQDTEELEKEIREDLPVNTSKTRPKQEKAFSLKTISTSDPAEVLVKNSQPIKTLPPATSTEPSVILSKSDSDKSSSQVPPILQETDKSKSNTKQNSVPPSQTKSETSWESPKQIKKKKKARRET
Take B1: the binding entry is recorded as “binds”.
